No constants are given. Whether binding was seen depends on the method and setting. Binding seen in cells or lysates may run through a third protein. For some of these results: A result given as binding can be weak or reduced; the word gives no strength. For some of these results: Sequences can lack the tags named with a protein.
Assays:
Assay in all cases: co-IP; HEK293 cells transiently transfected with FLAG- or myc-tagged RLIM and ZC4H2 vectors; lysis in 50 mM Tris-HCl pH 7.4, 150 mM NaCl, 5 mM EDTA, 1% Triton X-100; anti-FLAG M2 beads, 4°C, 4 h; western blotting
[1] = target: T1, FLAG-tagged ZC4H2 (UniProt Q9NQZ6)
T1 sequence: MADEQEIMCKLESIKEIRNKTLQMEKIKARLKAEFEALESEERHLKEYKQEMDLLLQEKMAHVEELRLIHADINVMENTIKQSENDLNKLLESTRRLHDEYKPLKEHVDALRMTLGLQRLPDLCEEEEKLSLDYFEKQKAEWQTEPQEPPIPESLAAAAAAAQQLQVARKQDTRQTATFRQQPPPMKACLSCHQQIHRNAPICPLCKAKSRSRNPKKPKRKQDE

Protein sequences, listed by entry. Tags and fused reporters are not part of them. Lines headed by an entry give the natural chain unless they say otherwise; changes in a name come on top.
UniProt Q9WTV7: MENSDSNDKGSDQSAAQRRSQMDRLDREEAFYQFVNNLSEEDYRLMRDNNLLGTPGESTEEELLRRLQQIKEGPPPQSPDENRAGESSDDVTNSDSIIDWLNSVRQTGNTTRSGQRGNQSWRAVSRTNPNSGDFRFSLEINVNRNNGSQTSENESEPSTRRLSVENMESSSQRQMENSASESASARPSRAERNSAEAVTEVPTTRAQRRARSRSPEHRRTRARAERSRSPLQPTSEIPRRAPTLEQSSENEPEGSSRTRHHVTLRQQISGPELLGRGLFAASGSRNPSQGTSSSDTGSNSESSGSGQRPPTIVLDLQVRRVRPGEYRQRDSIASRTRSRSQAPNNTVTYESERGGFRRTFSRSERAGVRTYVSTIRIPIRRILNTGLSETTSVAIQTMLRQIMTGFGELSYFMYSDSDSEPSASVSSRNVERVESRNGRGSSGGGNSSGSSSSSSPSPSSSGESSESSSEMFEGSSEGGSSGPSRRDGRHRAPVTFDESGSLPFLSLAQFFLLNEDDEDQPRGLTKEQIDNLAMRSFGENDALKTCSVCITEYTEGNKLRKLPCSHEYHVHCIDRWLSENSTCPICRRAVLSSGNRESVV
UniProt Q9NVW2: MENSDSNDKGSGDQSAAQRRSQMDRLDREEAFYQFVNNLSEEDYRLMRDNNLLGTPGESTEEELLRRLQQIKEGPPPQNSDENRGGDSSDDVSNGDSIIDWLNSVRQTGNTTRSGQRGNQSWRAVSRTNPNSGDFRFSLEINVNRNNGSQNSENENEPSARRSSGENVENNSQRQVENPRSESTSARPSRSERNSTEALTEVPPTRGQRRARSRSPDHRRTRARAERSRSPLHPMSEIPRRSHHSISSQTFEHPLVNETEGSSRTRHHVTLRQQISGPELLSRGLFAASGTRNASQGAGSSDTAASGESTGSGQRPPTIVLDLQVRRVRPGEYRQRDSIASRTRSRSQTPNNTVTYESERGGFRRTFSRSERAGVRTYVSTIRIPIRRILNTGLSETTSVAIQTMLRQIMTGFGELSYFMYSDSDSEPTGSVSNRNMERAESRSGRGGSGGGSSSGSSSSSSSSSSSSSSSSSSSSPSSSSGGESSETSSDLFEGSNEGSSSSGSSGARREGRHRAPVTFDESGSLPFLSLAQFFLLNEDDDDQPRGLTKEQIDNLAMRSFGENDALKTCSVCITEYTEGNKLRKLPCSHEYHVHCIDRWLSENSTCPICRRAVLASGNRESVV

[2] = target: FLAG-tagged RLIM (not stated (human or mouse cDNA cloned))
[3] = target: RLIM ΔR with ΔNLS (not stated (human or mouse cDNA cloned))
[4] = target: RLIM ΔN (not stated (human or mouse cDNA cloned)) (UniProt Q9WTV7)
[5] = target: RLIM ΔNLS (not stated (human or mouse cDNA cloned)) (UniProt Q9NVW2)
[6] = target: RLIM ΔR with S214A (not stated (human or mouse cDNA cloned))
[7] = target: RLIM S214A (not stated (human or mouse cDNA cloned)) (UniProt Q9NVW2)

## myc-tagged RLIM
[1]
  binding: binds

B1: myc-tagged ZC4H2 (protein, UniProt Q9NQZ6 1-224)
chain: T1 sequence
[2]
  binding: binds

B2: ZC4H2 (wild type; mapping and mutation co-IPs) (protein, UniProt Q9NQZ6 1-224)
chain: T1 sequence
[3]
  binding: no binding
[4]
  binding: binds
[5]
  binding: no binding
[6]
  binding: no binding
[7]
  binding: no binding

From article PMC8982406
